Article PMC11911448
Results are given in words; binding and its absence hold for the method and conditions named. In cells and extracts the contact can be indirect. Some results given as binding are weak or reduced against the parent protein; the word gives no strength.

The chains behind the UniProt entries cited, without tags or fusion partners.
UniProt Q6A4J8: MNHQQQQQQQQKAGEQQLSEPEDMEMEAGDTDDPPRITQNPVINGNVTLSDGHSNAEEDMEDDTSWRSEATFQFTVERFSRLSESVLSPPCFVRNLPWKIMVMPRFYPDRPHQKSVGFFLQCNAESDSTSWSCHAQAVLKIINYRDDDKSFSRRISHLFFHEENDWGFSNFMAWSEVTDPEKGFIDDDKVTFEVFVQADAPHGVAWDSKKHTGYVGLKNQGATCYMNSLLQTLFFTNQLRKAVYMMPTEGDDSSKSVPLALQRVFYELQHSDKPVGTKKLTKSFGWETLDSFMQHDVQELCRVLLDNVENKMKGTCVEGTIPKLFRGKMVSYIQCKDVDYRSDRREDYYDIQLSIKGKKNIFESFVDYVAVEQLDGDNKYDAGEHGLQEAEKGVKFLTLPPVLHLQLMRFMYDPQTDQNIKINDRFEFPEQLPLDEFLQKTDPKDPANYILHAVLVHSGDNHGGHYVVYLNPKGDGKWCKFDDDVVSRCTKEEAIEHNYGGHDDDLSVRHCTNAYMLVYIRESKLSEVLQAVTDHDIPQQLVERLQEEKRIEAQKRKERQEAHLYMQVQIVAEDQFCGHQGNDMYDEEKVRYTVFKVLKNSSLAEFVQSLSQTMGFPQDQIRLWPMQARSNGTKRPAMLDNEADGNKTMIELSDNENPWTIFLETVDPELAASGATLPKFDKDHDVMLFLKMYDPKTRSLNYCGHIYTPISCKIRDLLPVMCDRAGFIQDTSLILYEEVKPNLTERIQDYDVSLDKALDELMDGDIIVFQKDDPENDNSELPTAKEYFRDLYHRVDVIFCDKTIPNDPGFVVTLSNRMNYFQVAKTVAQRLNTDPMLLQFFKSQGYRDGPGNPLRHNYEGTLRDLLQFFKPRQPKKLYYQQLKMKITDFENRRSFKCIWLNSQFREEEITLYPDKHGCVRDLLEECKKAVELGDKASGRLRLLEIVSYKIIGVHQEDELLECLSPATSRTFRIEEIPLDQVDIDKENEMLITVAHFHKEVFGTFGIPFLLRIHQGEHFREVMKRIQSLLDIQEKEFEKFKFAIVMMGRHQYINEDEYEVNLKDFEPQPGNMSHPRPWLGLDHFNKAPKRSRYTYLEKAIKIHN
UniProt Q04207: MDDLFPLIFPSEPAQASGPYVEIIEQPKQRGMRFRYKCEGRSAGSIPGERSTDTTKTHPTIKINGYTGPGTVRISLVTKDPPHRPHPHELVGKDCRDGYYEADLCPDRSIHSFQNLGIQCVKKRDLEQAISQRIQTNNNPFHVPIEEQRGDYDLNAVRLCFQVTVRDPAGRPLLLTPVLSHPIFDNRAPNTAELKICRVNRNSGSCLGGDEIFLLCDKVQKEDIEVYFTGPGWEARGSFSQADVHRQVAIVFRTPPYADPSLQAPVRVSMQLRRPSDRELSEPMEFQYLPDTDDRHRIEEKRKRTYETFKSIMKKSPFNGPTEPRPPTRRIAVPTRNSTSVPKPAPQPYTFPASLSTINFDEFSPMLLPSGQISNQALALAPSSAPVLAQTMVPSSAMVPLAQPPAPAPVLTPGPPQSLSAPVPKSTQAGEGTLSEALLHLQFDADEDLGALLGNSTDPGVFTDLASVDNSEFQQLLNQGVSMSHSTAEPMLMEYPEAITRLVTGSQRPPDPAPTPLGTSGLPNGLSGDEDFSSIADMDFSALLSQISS

Molecular target: ubiquitin-specific protease 7 (endogenous in LLC and MC38 cells) (mouse (endogenous in LLC and MC38)) (UniProt Q6A4J8)
Test: co-IP; CoIP of USP7 and p65 in LLC cells with S100a1 shRNAs or scramble control and in MC38 cells with the S100a1 ORF or empty vector

binding: binds
Substance: NF-κB transcription factor p65 (endogenous in LLC and MC38 cells) (from UniProt Q04207 1-549)
